Reference: patent US20240002542A1 (SYNTHEKINE, published 2024)
Results are given in words; binding and its absence hold for the method and conditions named. Some entries that bind do so weakly or less than the wild type.

T1: hIL27Ra-his (Origene, Catalog #TP307012) (human, UniProt Q6UWB1 33-516, limits assumed)
T1 construct: Bought his-tagged cytokine receptor used as SPR analyte; also called human IL27 receptor subunit alpha; not shown: his tag
T1 sequence: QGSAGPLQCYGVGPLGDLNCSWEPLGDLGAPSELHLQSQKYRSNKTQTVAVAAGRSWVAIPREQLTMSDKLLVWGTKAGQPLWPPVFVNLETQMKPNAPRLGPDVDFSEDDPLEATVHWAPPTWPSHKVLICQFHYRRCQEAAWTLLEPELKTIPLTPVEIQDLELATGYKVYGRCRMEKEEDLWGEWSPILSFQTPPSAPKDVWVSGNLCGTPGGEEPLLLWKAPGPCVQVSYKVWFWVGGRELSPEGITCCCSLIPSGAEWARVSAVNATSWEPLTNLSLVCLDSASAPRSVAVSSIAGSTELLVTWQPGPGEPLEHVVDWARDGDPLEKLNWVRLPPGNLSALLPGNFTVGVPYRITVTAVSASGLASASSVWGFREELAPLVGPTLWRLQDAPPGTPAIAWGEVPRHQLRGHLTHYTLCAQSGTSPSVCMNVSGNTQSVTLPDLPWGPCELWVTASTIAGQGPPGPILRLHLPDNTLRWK


Target: T1, hIL27Ra-his (Origene, Catalog #TP307012)
Experiment: ELISA

binding | Binder
binds | hIL27Ra_VHH19 (VHH) VHH: QVQLQESGGGSVQAGGSLRLSCRASGSTYSNYCLGWFRQITGKEREGVAVINWVGGMLYFADSVKGRFTVSQDQAKNTVYLQMNSLKPEDTAMYYCAAESVSSFSCGGWLTRPDRVPYWGQGTQVTVSS
binds | hIL27Ra_VHH1 (VHH) VHH: QVQLQESGGGLVQPGGSLRLSCAASGFTFSSYPMSWVRQAPGKGLEWISTISAGGDTTLYADSVKGRFTSSRDNAKNTLYLQLNSLKTEDAAIYYCAKRIDCNSGYCYRRNYWGQGTQVTVSS
binds | hIL27Ra_VHH9 (VHH) VHH: QVQLQESGGGSVQSGGSLRLSCAASGFTYSTSNSWMAWFRQAPGKEREGVAAIYTVGGSIFYADSVRGRFTISQDATKNMFYLQMNTLKPEDTAMYYCAAASGRLRGKWFWPYEYNYWGQGTQVTVSS
binds | hIL27Ra_VHH15 (VHH) VHH: QVQLQESGGGSVQAGGSLRLSCVASGYVSCDYFLPSWYRQAPGKEREFVSIIDGTGSTSYAASVKGRFTASQDKGKNIAYLQMNTLKPEDTAMYYCKASCVRGRAISEYWGQGTQVTVSS
binds | hIL27Ra_VHH6 (VHH) VHH: QVQLQESGGGLVQPGGSLRLSCAASGFSFSSYAMKWVRQAPGKGLEWVSTISSGGSSTNYADSVKGRFTISRDNAKNTLYLQLNSLKIEDTAMYYCAKAIVPTGATMERGQGTQVTVSS
binds | hIL27Ra_VHH4 (VHH) VHH: QVQLQESGGGLVQPGESLRLSCTASGFTFSNYAMSWVRQAPGKGLEWVSGINVAYGITSYADSVKGRFTISRDNTKNTLYLQLNSLKTEDTAIYYCVKHSGTTIPRGFISYTKRGQGTQVTVSS
binds | hIL27Ra_VHH21 (VHH) VHH: QVQLQESGGGLVQPGGSLRLSCAASGFTFSLSSMSWVRQAPGKGLEWVSAISSGGASTYYTDSVKGRFTISRDNAKNMLYLQLNSLKTEDTAMYYCAKGGSGYGDASRMTSPGSQGTQVTVSS
